The values that follow come from article PMC13590098.

The chains behind the UniProt entries cited, without tags or fusion partners. Residues count along the entry.
UniProt P08476, residues 311-426: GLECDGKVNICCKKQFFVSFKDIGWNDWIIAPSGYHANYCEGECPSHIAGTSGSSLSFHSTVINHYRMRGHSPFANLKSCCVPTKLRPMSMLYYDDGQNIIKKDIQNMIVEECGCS
UniProt P19883, residues 30-317: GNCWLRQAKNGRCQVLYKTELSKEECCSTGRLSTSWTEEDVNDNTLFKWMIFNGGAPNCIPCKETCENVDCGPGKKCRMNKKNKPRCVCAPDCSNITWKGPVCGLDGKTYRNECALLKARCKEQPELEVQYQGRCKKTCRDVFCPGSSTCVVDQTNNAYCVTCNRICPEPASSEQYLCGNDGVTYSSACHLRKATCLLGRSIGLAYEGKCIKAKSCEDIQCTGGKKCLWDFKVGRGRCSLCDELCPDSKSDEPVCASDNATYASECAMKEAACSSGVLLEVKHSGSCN

In one assay the target is T1, GDF11 (UniProt O95390).
T1 sequence: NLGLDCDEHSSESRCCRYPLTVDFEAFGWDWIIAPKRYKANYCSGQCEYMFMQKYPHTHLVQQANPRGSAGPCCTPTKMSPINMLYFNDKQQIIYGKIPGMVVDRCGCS
Briefly: heparin affinity chromatography of the purified complex, fractions by Western blot; complexes formed from ligand and excess Fst288 (1:2.5 molar ratio, 4 °C, few hours) and purified on Superdex 200; 100 μg applied to a 1 ml HiTrap column, linear gradient up to 2 M NaCl over 120 column volumes; both purified. Background: Immunoblotting shows a protein as a band on a membrane.

The target of a further assay is activin A (UniProt P08476). Briefly: heparin affinity chromatography of the purified complex, fractions by Western blot; both purified.

Results are given in words; binding and its absence hold for the method and conditions named. Some results given as binding are weak or reduced against the parent protein; the word gives no strength.

Turning to “follistatin 288 (from UniProt P19883-2 30-317)”, the binding result with GDF11 and with activin A was “binds” in each case.
